# Measurements: article PMC10052374
# Columns and labels:
# [1] = test system: CsMYC2D-MBP (Citrus sinensis (Newhall orange)); experiment: DNA pull-down; settings: no difference from CsMYC2; DNA pull-down: probe bound to beads in 10 mM Tris-HCl pH 7.5, 1 mM EDTA, 1 M NaCl, 0.1% Tween-20 at RT, then protein 1 h on ice; recombinant protein; protein details: MBP (pMAL-C2X); label: 3' biotin
# [2] = target: CsMYC2-MBP (Citrus sinensis (Newhall orange)) (UniProt V4SX11); experiment: DNA pull-down; settings: CsMPK6-GST added; DNA pull-down: probe bound to beads in 10 mM Tris-HCl pH 7.5, 1 mM EDTA, 1 M NaCl, 0.1% Tween-20 at RT, then protein 1 h on ice; recombinant protein; protein details: MBP (pMAL-C2X); label: 3' biotin
# [3] = test system: CsMYC2A-MBP (Citrus sinensis (Newhall orange)); experiment: DNA pull-down; settings: no difference from CsMYC2; DNA pull-down: probe bound to beads in 10 mM Tris-HCl pH 7.5, 1 mM EDTA, 1 M NaCl, 0.1% Tween-20 at RT, then protein 1 h on ice; recombinant protein; protein details: MBP (pMAL-C2X); label: 3' biotin
# [4] = test system: CsMYC2D-MBP (Citrus sinensis (Newhall orange)); experiment: EMSA; settings: no difference from CsMYC2; EMSA: as in Yue et al. 2019, buffer not given; recombinant protein; protein details: MBP (pMAL-C2X); label: 3' biotin
# [5] = target: CsMYC2-MBP (Citrus sinensis (Newhall orange)) (UniProt V4SX11); experiment: EMSA; settings: CsMPK6-GST added (2, 6, 10 ug); EMSA: as in Yue et al. 2019, buffer not given; recombinant protein; protein details: MBP (pMAL-C2X); label: 3' biotin
# [6] = test system: CsMYC2A-MBP (Citrus sinensis (Newhall orange)); experiment: EMSA; settings: no difference from CsMYC2; EMSA: as in Yue et al. 2019, buffer not given; recombinant protein; protein details: MBP (pMAL-C2X); label: 3' biotin
sequence,measurement,setting,value
GTACCATACAACTGTGGCACCATAGCTGGATC (double strand) [CsCCD4b-probe],binding result,[1],binds
same,binding result,[2],binds more weakly
same,binding result,[3],binds
same,binding result,[4],binds
same,binding result,[5],binds more weakly
same,binding result,[6],binds

# For at least one entry, the source does not settle the construct or the ends of the probe. For part of these data: The comparison behind a weaker result is the experiment's own reference, which may not be listed here. For part of these data: At least one verdict was read from the data and is not stated in words by the source.
